Assay results: ChEMBL document CHEMBL4316593 (Eur J Med Chem, 2019)
The source gives many values for each of these; only a part stands here.

Columns and labels:
Format in all cases: cell-based
Conditions in all cases: U-87MG ATCC
[1] = Inhibition of RTK/PI3K/AKT/mTOR signaling in human U87 cells assessed as down regulation of MARK3 gene expression at cytotoxic IC50 measured after 48 hrs relative to control
[2] = Inhibition of RTK/PI3K/AKT/mTOR signaling in human U87 cells assessed as down regulation of GINS1 gene expression at cytotoxic IC50 measured after 48 hrs relative to control
[3] = Inhibition of RTK/PI3K/AKT/mTOR signaling in human U87 cells assessed as down regulation of NPNT gene expression at cytotoxic IC50 measured after 48 hrs relative to control
[4] = Inhibition of RTK/PI3K/AKT/mTOR signaling in human U87 cells assessed as up regulation of RNA polymerase I subunit C gene expression at cytotoxic IC50 measured after 48 hrs relative to control
[5] = Inhibition of RTK/PI3K/AKT/mTOR signaling in human U87 cells assessed as down regulation of NUP93 gene expression at cytotoxic IC50 measured after 48 hrs relative to control
[6] = Inhibition of RTK/PI3K/AKT/mTOR signaling in human U87 cells assessed as up regulation of signal peptidase complex subunit 2 gene expression at cytotoxic IC50 measured after 48 hrs relative to control
[7] = Inhibition of RTK/PI3K/AKT/mTOR signaling in human U87 cells assessed as up regulation of musashi RNA binding protein 2 gene expression at cytotoxic IC50 measured after 48 hrs relative to control
[8] = Inhibition of RTK/PI3K/AKT/mTOR signaling in human U87 cells assessed as up regulation of ribosomal RNA processing 1 gene expression at cytotoxic IC50 measured after 48 hrs relative to control
[9] = Inhibition of RTK/PI3K/AKT/mTOR signaling in human U87 cells assessed as down regulation of SMC6 gene expression at cytotoxic IC50 measured after 48 hrs relative to control
[10] = Inhibition of RTK/PI3K/AKT/mTOR signaling in human U87 cells assessed as down regulation of TADA2B gene expression at cytotoxic IC50 measured after 48 hrs relative to control
[11] = Inhibition of RTK/PI3K/AKT/mTOR signaling in human U87 cells assessed as up regulation of EZR gene expression at cytotoxic IC50 measured after 48 hrs relative to control
[12] = Inhibition of RTK/PI3K/AKT/mTOR signaling in human U87 cells assessed as up regulation of solute carrier family 39 member 10 gene expression at cytotoxic IC50 measured after 48 hrs relative to control
[13] = Inhibition of RTK/PI3K/AKT/mTOR signaling in human U87 cells assessed as down regulation of TXNRD1 gene expression at cytotoxic IC50 measured after 48 hrs relative to control
[14] = Inhibition of RTK/PI3K/AKT/mTOR signaling in human U87 cells assessed as down regulation of WWP2 gene expression at cytotoxic IC50 measured after 48 hrs relative to control
[15] = Inhibition of RTK/PI3K/AKT/mTOR signaling in human U87 cells assessed as up regulation of protein phosphatase 1 regulatory inhibitor subunit 14B gene expression at cytotoxic IC50 measured after 48 hrs relative to control
[16] = Inhibition of RTK/PI3K/AKT/mTOR signaling in human U87 cells assessed as up regulation of SSH1 gene expression at cytotoxic IC50 measured after 48 hrs relative to control
[17] = Inhibition of RTK/PI3K/AKT/mTOR signaling in human U87 cells assessed as down regulation of KREMEN1 gene expression at cytotoxic IC50 measured after 48 hrs relative to control
[18] = Inhibition of RTK/PI3K/AKT/mTOR signaling in human U87 cells assessed as down regulation of SUGT1 gene expression at cytotoxic IC50 measured after 48 hrs relative to control
[19] = Inhibition of RTK/PI3K/AKT/mTOR signaling in human U87 cells assessed as down regulation of SLC16A14 gene expression at cytotoxic IC50 measured after 48 hrs relative to control
[20] = Inhibition of RTK/PI3K/AKT/mTOR signaling in human U87 cells assessed as down regulation of CNKSR1 gene expression at cytotoxic IC50 measured after 48 hrs relative to control
[21] = Inhibition of RTK/PI3K/AKT/mTOR signaling in human U87 cells assessed as down regulation of ZNF562 gene expression at cytotoxic IC50 measured after 48 hrs relative to control
[22] = Inhibition of RTK/PI3K/AKT/mTOR signaling in human U87 cells assessed as up regulation of DIDO1 gene expression at cytotoxic IC50 measured after 48 hrs relative to control
[23] = Inhibition of RTK/PI3K/AKT/mTOR signaling in human U87 cells assessed as up regulation of protein phosphatase 1 regulatory subunit 13 like gene expression at cytotoxic IC50 measured after 48 hrs relative to control
[24] = Inhibition of RTK/PI3K/AKT/mTOR signaling in human U87 cells assessed as down regulation of MBIP gene expression at cytotoxic IC50 measured after 48 hrs relative to control
[25] = Inhibition of RTK/PI3K/AKT/mTOR signaling in human U87 cells assessed as down regulation of TP53I13 gene expression at cytotoxic IC50 measured after 48 hrs relative to control
[26] = Inhibition of RTK/PI3K/AKT/mTOR signaling in human U87 cells assessed as down regulation of NCAPG gene expression at cytotoxic IC50 measured after 48 hrs relative to control
[27] = Inhibition of RTK/PI3K/AKT/mTOR signaling in human U87 cells assessed as down regulation of RB1CC1 gene expression at cytotoxic IC50 measured after 48 hrs relative to control
[28] = Inhibition of RTK/PI3K/AKT/mTOR signaling in human U87 cells assessed as up regulation of IER5L gene expression at cytotoxic IC50 measured after 48 hrs relative to control
[29] = Inhibition of RTK/PI3K/AKT/mTOR signaling in human U87 cells assessed as up regulation of CDH15 gene expression at cytotoxic IC50 measured after 48 hrs relative to control
[30] = Inhibition of RTK/PI3K/AKT/mTOR signaling in human U87 cells assessed as up regulation of CLSTN1 gene expression at cytotoxic IC50 measured after 48 hrs relative to control
[31] = Inhibition of RTK/PI3K/AKT/mTOR signaling in human U87 cells assessed as down regulation of FOXM1 gene expression at cytotoxic IC50 measured after 48 hrs relative to control
[32] = Inhibition of RTK/PI3K/AKT/mTOR signaling in human U87 cells assessed as up regulation of TNS4 gene expression at cytotoxic IC50 measured after 48 hrs relative to control

SMILES: CC(=O)C(=NNc1ccccc1C#N)C(C)=O
- log2FC [1]: -0.475
- log2FC [2]: -1.2
- log2FC [3]: -0.932
- log2FC [4]: 0.686
- log2FC [5]: -0.604
- log2FC [6]: 0.737
- log2FC [7]: 1.02
- log2FC [8]: 0.773
- log2FC [9]: -0.896
- log2FC [10]: -0.57
- log2FC [11]: 1.66
- log2FC [12]: 1.5
- log2FC [13]: -0.383
- log2FC [14]: -0.536
- log2FC [15]: 0.883
- log2FC [16]: 0.624
- log2FC [17]: -0.604
- log2FC [18]: -0.807
- log2FC [19]: -2.77
- log2FC [20]: -0.809
- log2FC [21]: -1.14
- log2FC [22]: 0.562
- log2FC [23]: 1.03
- log2FC [24]: -1.15
- log2FC [25]: -0.709
- log2FC [26]: -1.04
- log2FC [27]: -0.697
- log2FC [28]: 1.89
- log2FC [29]: 2.03
- log2FC [30]: 0.429
- log2FC [31]: -1.28
- log2FC [32]: 2.67
